# Structures can show the parent of a compound that is named as a salt. Some entries share one result that the patent states for a list of compounds.
# Experiments:
# [1] = Aqueous solubility at two pH levels; format: physicochemical; conditions: two different pH levels
# [2] = Rat PK (p.o.); format: in vivo; conditions: dosed orally at 10 or 15 mg/kg
Structure (SMILES),aqueous solubility [1],pharmacokinetic (PK) properties [2]
"CC(C)[C@@H]1NC(=O)C(C)(C)NC(=O)c2csc(n2)CNC(=O)C[C@@H](/C=C/CCSC(=O)[C@H](N)C(C)C)OC1=O.Cl [Example 1, (R)—S-((E)-4-((7S,10S)-7-isopropyl-4,4-dimethyl-2,5,8,12-tetraoxo-9-oxa-16-thia-3,6,13,18-tetraazabicyclo[13.2.1]octadeca-1(17),15(18)-dien-10-yl)but-3-en-1-yl) 2-amino-3-methylbutanethioate Hydrochloride]",suitable aqueous solubility values,unexpectedly good pharmacokinetic (PK) properties
"CC(C)[C@H](N)C(=O)SCC/C=C/[C@@H]1CC(=O)NCc2nc(cs2)C(=O)NC(C)(C)C(=O)N[C@@H](C(C)C)C(=O)O1.Cl [Example 2, (S)—S-((E)-4-((7S,10S)-7-isopropyl-4,4-dimethyl-2,5,8,12-tetraoxo-9-oxa-16-thia-3,6,13,18-tetraazabicyclo[13.2.1]octadeca-1(17),15(18)-dien-10-yl)but-3-en-1-yl) 2-amino-3-methylbutanethioate Hydrochloride]",suitable aqueous solubility values,unexpectedly good pharmacokinetic (PK) properties
"CC(C)[C@H](N)C(=O)SCC/C=C/[C@@H]1CC(=O)NCc2nc(cs2)C(=O)NC(C)(C)C(=O)N[C@@H](C(C)C)C(=O)O1.O=S(=O)(O)c1ccccc1 [Example 3, (S)—S-((E)-4-((7S,10S)-7-isopropyl-4,4-dimethyl-2,5,8,12-tetraoxo-9-oxa-16-thia-3,6,13,18-tetraazabicyclo[13.2.1]octadeca-1(17),15(18)-dien-10-yl)but-3-en-1-yl) 2-amino-3-methylbutanethioate Benzenesulfonate]",suitable aqueous solubility values,unexpectedly good pharmacokinetic (PK) properties
"CC(C)[C@@H]1NC(=O)C(C)(C)NC(=O)c2csc(n2)CNC(=O)C[C@@H](/C=C/CCSC(=O)[C@H](C)N)OC1=O [Example 4, (S)—S-((E)-4-((7S,10S)-7-isopropyl-4,4-dimethyl-2,5,8,12-tetraoxo-9-oxa-16-thia-3,6,13,18-tetraazabicyclo[13.2.1]octadeca-1(17),15(18)-dien-10-yl)but-3-en-1-yl) 2-aminopropanethioate Oxalate]",suitable aqueous solubility values,unexpectedly good pharmacokinetic (PK) properties
"CC(C)[C@@H]1NC(=O)C(C)(C)NC(=O)c2csc(n2)CNC(=O)C[C@@H](/C=C/CCSC(=O)[C@@H](C)N)OC1=O [Example 5, (R)—S-((E)-4-((7S,10S)-7-isopropyl-4,4-dimethyl-2,5,8,12-tetraoxo-9-oxa-16-thia-3,6,13,18-tetraazabicyclo[13.2.1]octadeca-1(17),15(18)-dien-10-yl)but-3-en-1-yl) 2-aminopropanethioate Oxalate]",suitable aqueous solubility values,unexpectedly good pharmacokinetic (PK) properties
"CC(C)[C@@H]1NC(=O)C(C)(C)NC(=O)c2csc(n2)CNC(=O)C[C@@H](/C=C/CCSC(=O)CN(C)C)OC1=O [Example 6, S-((E)-4-((7S,10S)-7-isopropyl-4,4-dimethyl-2,5,8,12-tetraoxo-9-oxa-16-thia-3,6,13,18-tetraazabicyclo[13.2.1]octadeca-1(17),15(18)-dien-10-yl)but-3-en-1-yl) 2-(dimethylamino)ethanethioate]",suitable aqueous solubility values,unexpectedly good pharmacokinetic (PK) properties
"CC(C)[C@@H]1NC(=O)C(C)(C)NC(=O)c2csc(n2)CNC(=O)C[C@@H](/C=C/CCSC(=O)c2cccnc2)OC1=O [Example 7, S-((E)-4-((7S,10S,Z)-7-isopropyl-4,4-dimethyl-2,5,8,12-tetraoxo-9-oxa-3,6,13-triaza-1(4,2)-thiazolacyclotetradecaphane-10-yl)but-3-en-1-yl) pyridine-3-carbothioate]",,unexpectedly good pharmacokinetic (PK) properties

# — patent US11203602B2, “Thioester prodrugs of macrocycles as inhibitors of histone deacetylases” (OnKure, Inc., priority 2016, dated 2021)
